Measured values published in US20080199481A1.
Results are given in words; binding and its absence hold for the method and conditions named. Some binding calls cover weakened binding; strength is not graded here.

Experiments:
[1] = molecular target: T1, Recombinant CXCL13 (standards provided in the R&D Systems Quantikine Human CXCL13/BLC/BCA-1 kit) (human) (UniProt O43927); assay: sandwich ELISA, plates coated with Antibody 1, detection with the R&D Quantikine human CXCL13 kit
T1 sequence: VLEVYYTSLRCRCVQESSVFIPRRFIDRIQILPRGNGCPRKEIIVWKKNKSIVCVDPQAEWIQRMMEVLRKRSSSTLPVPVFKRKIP

[2] = molecular target: T2, Native human CXCL13 (human) (UniProt O43927); assay: as above
T2 sequence: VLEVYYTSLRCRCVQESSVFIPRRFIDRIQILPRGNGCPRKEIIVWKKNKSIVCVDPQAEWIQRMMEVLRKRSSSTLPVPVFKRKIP

[3] = molecular target: T1, Recombinant CXCL13 (standards provided in the R&D Systems Quantikine Human CXCL13/BLC/BCA-1 kit) (human); assay: sandwich ELISA, plates coated with Antibody 1 (5 µg/ml), detection with the R&D Quantikine human CXCL13 kit
[4] = molecular target: T2, Native human CXCL13 (human); assay: as above

binding [1]: binds
binding [2]: binds
binding [3]: binds
binding [4]: binds
B1: Antibody 1 (germlined IgG1) (antibody, V domains shown)
VH: EVQLLESGGGLVQPGGSLRLSCAASGFTFGNSWMSWVRQAPGKGLEWVSAISGSGGSTYYADSVKGRFTISRDNSKNTLYLQMNSLRAEDTAVYYCTRDLPGIAVAGYWGQGTLVTVSS
VL: DTQMTQSPSTLSASVGDRVTITCRASEGIYHWLAWYQQKPGKAPKLLIYKASSLASGVPSRFSGSGSGTEFTLTISSLQPDDFATYYCQQYSNYPLTFGGGTKLEIKR
